Binding data for four molecules are collected here from publication PMC5811534, “Neuropathic MORC2 mutations perturb GHKL ATPase dimerization dynamics and epigenetic silencing by multiple structural mechanisms” (Nature Communications, 2018).

Numbering of substitutions follows the chain as printed. Names and notes keep the numbering of the source. Results are given in words; binding and its absence hold for the method and conditions named.

Test [1] deals with wild-type human MORC2(1–603) (human) (UniProt Q9Y6X9). In words: SEC-MALS; SEC-MALS with QELS, Superdex 200 (10/300), 293 K, gel filtration buffer (50 mM HEPES pH 7.5, 150 mM NaCl, 2 mM MgCl2, 0.25 mM TCEP); no nucleotide added; WT at 40 µM, S87L at 7.5 µM; monomer to dimer; both purified.
Test [2] concerns the target MORC2(1–603) Y18A (human) (UniProt Q9Y6X9). Kind of test: SEC-MALS; SEC-MALS with QELS, Superdex 200 (10/300), 293 K, gel filtration buffer; 2 mM Mg-AMPPNP added to the sample, 30 min on ice before injection; WT at 40 µM, T424R at 7.5 µM; monomer to dimer; both purified. In general terms: Size exclusion chromatography separates by hydrodynamic size, large species first.

Test [3] concerns the target MORC2(1–603) T424R (human) (UniProt Q9Y6X9). In words: condition: only during purification, no nucleotide added; SEC; size-exclusion chromatography at purification, Superdex 200 increase (10/300), MORC2 gel filtration buffer, 4 °C, no nucleotide added; both purified.
Test [4] concerns the target MORC2(1–603) N39A (human) (UniProt Q9Y6X9). Kind of test: SEC; SEC of the N39A mutant (Supplementary Figs. 2 and 8), used with DSF to test Mg-AMPPNP binding; both purified.

“wild-type human MORC2(1–603) (from UniProt Q9Y6X9-1 1-603) (domain or fragment)”: the binding entry in test [1] is on record as “no binding (condition: without nucleotide (apo), 40 µM)”.

B1: MORC2(1–603) Y18A (domain or fragment, UniProt Q9Y6X9-1 1-603)
chain: MAFTNYSSLNRAQLTFEALHTNSTTHEFLFGALAELVDNARDADATRIDIYAERREDLRGGFMLCFLDDGAGMDPSDAASVIQFGKSAKRTPESTQIGQYGNGLKSGSMRIGKDFILFTKKEDTMTCLFLSRTFHEEEGIDEVIVPLPTWNARTREPVTDNVEKFAIETELIYKYSPFRTEEEVMTQFMKIPGDSGTLVIIFNLKLMDNGEPELDIISNPRDIQMAETSPEGTKPERRSFRAYAAVLYIDPRMRIFIHGHKVQTKRLSCCLYKPRMYKYTSSRFKTRAEQEVKKAEHVARIAEEKAREAESKARTLEVRLGGDLTRDSRVMLRQVQNRAITLRREADVKKRIKEAKQRALKEPKELNFVFGVNIEHRDLDGMFIYNCSRLIKMYEKVGPQLEGGMACGGVVGVVDVPYLVLEPTHNKQDFADAKEYRHLLRAMGEHLAQYWKDIAIAQRGIIKFWDEFGYLSANWNQPPSSELRYKRRRAMEIPTTIQCDLCLKWRTLPFQLSSVEKDYPDTWVCSMNPDPEQDRCEASEQKQKVPLGTFRKDMKTQEEKQKQLTEKIRQQQEKLEALQKTTPIRSQADLKKLPLEVTTRPST
B1: the binding result in test [2] is given as “no binding”.

B2: MORC2(1–603) T424R (domain or fragment, human, UniProt Q9Y6X9-1 1-603, looked up)
chain: B1 chain with A18Y, T424R
notes: also called T424R variant; source: Sf9 insect cells (baculovirus), purified as for wild type; not shown: tandem StrepII, N-terminal, cleaved
For B2, the binding result in test [3] is “no binding”.

B3: MORC2(1–603) N39A (domain or fragment, UniProt Q9Y6X9-1 1-603)
chain: B1 chain with A18Y, N39A
B3: the binding entry in test [4] is given as “no binding”.
